Legend:
Format in all cases: cell-based
[1] = biological target: T1, RSV F protein (Human respiratory syncytial virus A, UniProt P03420); assay: Cell content mixing T7 luciferase fusion assay, recombinant F, 384-well
T1 construct: expressed in transfected cells; host or cells: Cos7 cells (transiently transfected), co-plated with BsrT7 cells
Method: (§1) The protocol is an adaptation of that described by Bagai and Lamb[29]. Cos7 cells were transfected with a plasmid containing Renilla luciferase under T7 promoter control (pGL80-T7RL) and an RSV F expression vector. For live virus fusion assay, transfection media was removed after 2 h and replaced with SF media containing RSV (MOI of 2). Two h post infection (4 h post initial transfection) cells were trypsinized and re-suspended to 8 × 10^5 cells/ml. Compounds were serially diluted in SF Opti-MEM media and added to opaque bottom, white microtitre plates (Corning) at 50 μl/well along with 25 μl of both Cos7 and BsrT7 cells added to each well to obtain a final concentration of 5 × 10^4 cells/well. After 24 h, media was exchanged with 50 μl/well Opti-MEM media supplemented with 2% FBS and 8 ng/ml Enduren Live Cell Substrate (Promega). After 6 h at 37 °C in a humidified incubator supplemented with 5% CO2, the plates were read using a Lucy 2 luminometer with 1 sec integration time. Assays were performed in triplicate.
(§2) 384-well fusion assays were setup as per 96-well protocol with the following changes: Cos7 and BsrT7 cells were seeded at a final concentration of 1 × 10^4 cells/well. Compound titration was performed in a Biomek NX Laboratory Automation Workstation and added to a final volume of 25 μl/well. Luciferase activity was determined using an EnVision Multilabel reader (PerkinElmer).

Protein sequences, listed by entry. Tags and fused reporters are not part of them. Residues count along the entry.
UniProt P03420, 137-574: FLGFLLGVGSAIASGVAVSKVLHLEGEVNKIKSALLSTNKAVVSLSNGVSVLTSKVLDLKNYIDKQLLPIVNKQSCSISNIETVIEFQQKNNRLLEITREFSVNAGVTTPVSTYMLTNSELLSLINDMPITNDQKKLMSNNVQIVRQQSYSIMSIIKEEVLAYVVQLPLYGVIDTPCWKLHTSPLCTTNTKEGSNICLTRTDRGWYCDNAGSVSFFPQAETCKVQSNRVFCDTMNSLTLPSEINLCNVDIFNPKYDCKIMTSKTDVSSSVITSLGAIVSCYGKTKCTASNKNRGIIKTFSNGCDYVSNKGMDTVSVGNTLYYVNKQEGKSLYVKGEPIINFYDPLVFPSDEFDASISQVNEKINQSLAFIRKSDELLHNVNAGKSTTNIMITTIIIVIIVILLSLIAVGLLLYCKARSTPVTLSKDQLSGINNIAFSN
UniProt P03420, 26-109: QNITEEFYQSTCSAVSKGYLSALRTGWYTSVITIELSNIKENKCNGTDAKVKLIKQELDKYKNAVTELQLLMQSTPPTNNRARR

[2] = biological target: T1, RSV F protein; assay: Cell content mixing T7 luciferase fusion assay, recombinant F, 96-well
Method: as §1

[3] = biological target: T1, RSV F protein; assay: recombinant F CEI fusion assay, 384-well
Description: Impedance assays were setup in parallel to microscopy based fluorescent protein cytoplasmic mixing and cell content mixing T7 driven fusion assays. For testing small molecule inhibitors see cell content mixing, T7 driven reporter fusion assay protocol for cell infection, transfection and plating method. All other steps were as listed below.
Cos7-G cells were transfected with the RSV F expression vector (pCICO-Fopt) in 6 well plates using lipofectamine LTX as per manufacturer’s instructions (Invitrogen) or infected with RSV (MOI of 2). Four hours post infection/transfection, cells were trypsinized and re-suspended to 8 × 10^5 cells/ml. E-Plates were pre-blanked and Cos7-G and Cos7-R cells were seeded together at a 1:1 ratio for a final cell density of 5 × 10^4 cells/well. Plates were placed into the SP station, incubated at 37 °C in 5% CO2 and impedance was recorded every 15 min over 72 h.
as §2

Cc1ccc(CCCO)c(NCc2ccc3nc(NCCCN4CCOCC4)n(Cc4nc(C)ccc4O)c3c2)c1 [TMC-353121]
IC50 [1]: 63.1 nM | IC50 [2]: 0.501 nM | IC50 [3]: 126 nM

From publication PMC4792136, “A generic screening platform for inhibitors of virus induced cell fusion using cellular electrical impedance” (Scientific Reports, 2016)
